Holding throughout (assay type): cell-based
The test system of one data set is Colo 320DM. In words: Fusion protein expression rate of recombinant Colo 320DM clones (ELISA). (In an ELISA, binding on a coated surface is turned into a signal by an enzyme label.)
Another data set deals with LoVo. The data set can be described thus: Fusion protein expression rate of recombinant LoVo clones (ELISA).
Data set [1] relates to recombinant HCT116 inducible cell line. The data set can be described thus: Doxycycline induction of fusion protein from inducible recombinant HCT116 cell line. The conditions noted are these: 48 h.

B1: (A5B7 Fab-CPG2)2 fusion protein: chimaeric A5B7 anti-CEA Fab, heavy chain Fd linked via (G4S)3 linker to CPG2 R6, dimerised through CPG2 (antibody)
heavy: EVKLVESGGGLVQPGGSLRLSCATSGFTFTDYYMNWVRQPPGKALEWLGFIGNKANGYTTEYSASVKGRFTISRDKSQSILYLQMNTLRAEDSATYYCTRDRGLRFYFDYWGQGTTLTVSSASTKGPSVFPLAPCSRSTSESTAALGCLVKDYFPEPVTVSWNSGALTSGVHTFPAVLQSSGLYSLSSVVTVPSSNFGTQTYTCNVDHKPSNTKVDKTVGGGGSGGGGSGGGGSQKRDNVLFQAATDEQPAVIKTLEKLVNIETGTGDAEGIAAAGNFLEAELKNLGFTVTRSKSAGLVVGDNIVGKIKGRGGKNLLLMSHMDTVYLKGILAKAPFRVEGDKAYGPGIADDKGGNAVILHTLKLLKEYGVRDYGTITVLFNTDEEKGSFGSRDLIQEEAKLADYVLSFEPTSAGDEKLSLGTSGIAYVQVQITGKASHAGAAPELGVNALVEASDLVLRTMNIDDKAKNLRFQWTIAKAGQVSNIIPASATLNADVRYARNEDFDAAMKTLEERAQQKKLPEADVKVIVTRGRPAFNAGEGGKKLVDKAVAYYKEAGGTLGVEERTGGGTDAAYAALSGKPVIESLGLPGFGYHSDKAEYVDISAIPRRLYMAARLIMDLGAGK
light: QTVLSQSPAILSASPGEKVTMTCRASSSVTYIHWYQQKPGSSPKSWIYATSNLASGVPARFSGSGSGTSYSLTISRVEAEDAATYYCQHWSSKPPTFGGGTKLEIKRTVAAPSVFIFPPSDEQLKSGTASVVCLLNNFYPREAKVQWKVDNALQSGNSQESVTEQDSKDSTYSLSSTLTLSKADYEKHKVYACEVTHQGLSSPVTKSFNRGEC
For the molecule B1, the “fusion protein expression rate” value amounted to 10540 ng/10^6cells/24 h in the data set on Colo 320DM (Colo 320DM clone B3); 885 ng/10^6cells/24 h in the data set on Colo 320DM (Colo 320DM clone B9); 3090 ng/10^6cells/24 h in the data set with Colo 320DM (Colo 320DM clone B10); 35660 ng/10^6cells/24 h in the data set on Colo 320DM (Colo 320DM clone F12); 4720 ng/10^6cells/24 h in the data set with Colo 320DM (Colo 320DM clone G4); 8370 ng/10^6cells/24 h in the data set with LoVo (LoVo clone B9). Further, the “fusion protein expression rate” value came out at 7350 ng/10^6cells/24 h with LoVo (LoVo clone C1), 10770 ng/10^6cells/24 h in the data set on LoVo (LoVo clone C7), 2983 ng/10^6cells/24 h in the data set with LoVo (LoVo clone F12) and 4140 ng/10^6cells/24 h with LoVo (LoVo clone G10). Further, the “fusion protein in the supernatant” value in data set [1] (clone F11, induced with 2 μg/ml doxycycline) was 120 ng/mL; in data set [1] (clone F11, non-induced cells), “below 1 ng/ml”.
